Source: PubChem BioAssay AID1508600 (Functional Genomics Laboratory (NCATS/FGL), 2020)
Out of some 53,000 sequences screened, about 3,700 (7%) were called active.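 The calls were made as follows: active = gene knockdowns whose robust z-score for IL-1 alpha signal is at least 2 or at most -2, so actives lie on both sides; inactive = the rest.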 This is one part of the list.

test: Components of the Cytosolic LPS Sensing Pathway: Gene Identification via Genome-wide siRNA Screen; conditions: RAW264.7 macrophages, IL-1a HTRF, actives lie on both sides, screened at 100 nM (by protocol), cells primed 5 h with Pam3CSK4 first;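 also: robust z of the log signal after scaling to non-targeting control siRNA wells of the plate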
Procedure, shortened: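 Knockdown: 100 nM siRNA, 48h, RAW264.7. Stimulation: Pam3CSK4 5 h, then LipidA via TransIT-TKO 24 h. Output: supernatant IL-1a HTRF, negative-control-normalized, log robust z-score; viability by CellTiter-Glo.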

Sequence | z-score
GGAAAUGAUAUUUGCCUGATT against Eola1 | inactive: -1.48
GCCAAGAAAGAAGGCGUAUTT against Cox6c | inactive: -0.275
CCUACUGACGGGAUGAAGUTT against Kyat3 | inactive: -0.251
CGUUCCAAAUUAGACUUGUTT against Ccdc32 | inactive: -0.175
GGAAAAGGUUAAACUUUGATT against Cenpc1 | inactive: 0.165
GUAUUGUCAUCAUCAUUUCTT against Olfr910 | inactive: 0.115
GGAAUGACUUUUGAGACAGTT against Cyp1a1 | inactive: -0.732
GCUGGCUUUGAUUUAUGGATT against Prkar1a | active: 5.06
GGAGAUCUUAGCAAAGUAUTT against Degs1 | active: 2.41
GGUUCAGUAUAUCAUCUCUTT against Zfp335 | active: 2.69
GGAGUUCAAUUCAUUGCCATT against Ptpre | inactive: 0.63
GGGAGACAGAGAAAUCCUGTT against Alkbh7 | inactive: -1.8
GCCCUGUUGGACAUGAUCGTT against Txlnb | inactive: -0.288
GCCAGUUGAAACCUAAACATT against Slc35d2 | inactive: -0.576
GGUCAUUGGUUCCUCCCUUTT against C2cd4c | active: 2.59
GGAAAUAGUCAAAAGCUAUTT against Gpc5 | inactive: -0.414
CCAGGUGACACCCAUCAUUTT against Ankrd13d | inactive: 0.329
GGUUCUGCCAUGGAGGAAUTT against Svs5 | inactive: 0.0746
GGGAAUGUGUUCAAAAACATT against Rpl19 | inactive: -0.349
UCACAAUGGAUAUUUACCUTT against Olfr693 | inactive: -1.5
GGUGGACAAGUUCAAAGCCTT against Atg4d | inactive: -1.56
GCGAGCCAAGUUUGAACUUTT against Elovl6 | inactive: 1.42
GGCUCAAGAUAUCUAAGUATT against Olfr656 | inactive: -0.752
GGCCUUCAGUCCAUUUUUCTT against Sms | inactive: 1.06
GGCAAAAACCCAGAGGACCTT against Mmut | inactive: 0.979
GGUACACAUUCACCAUAGCTT against Abcc8 | inactive: -1.84
GGCCUUGUAUGAAUUAUUUTT against Sqle | active: 2.18
CGAGGGCUACCUCAACAACTT against Syngr1 | inactive: 0.833
GGAUCACGAAUGAAUCCGATT against Clec4a4 | inactive: -0.815
CGAAAGAGAUGAUGAUAAUTT against Arrdc3 | inactive: 0.641

Some of the entries so far, with each value named:
GGAAAUAGUCAAAAGCUAUTT against Gpc5
  z-score: inactive: -0.414
CCAGGUGACACCCAUCAUUTT against Ankrd13d
  z-score: inactive: 0.329
